For this assay, the target named is human CD40 (cell-surface CD40) (human) (UniProt P25942). Nature of the assay: co-immunoprecipitation with polyclonal anti-CD40 from normal human B cells, Western blot. (In general: Immunoblotting shows a protein as a band on a membrane.)

Protein sequences, listed by entry. Tags and fused reporters are not part of them. Lines headed by an entry give the natural chain unless they say otherwise; changes in a name come on top.
UniProt P25942: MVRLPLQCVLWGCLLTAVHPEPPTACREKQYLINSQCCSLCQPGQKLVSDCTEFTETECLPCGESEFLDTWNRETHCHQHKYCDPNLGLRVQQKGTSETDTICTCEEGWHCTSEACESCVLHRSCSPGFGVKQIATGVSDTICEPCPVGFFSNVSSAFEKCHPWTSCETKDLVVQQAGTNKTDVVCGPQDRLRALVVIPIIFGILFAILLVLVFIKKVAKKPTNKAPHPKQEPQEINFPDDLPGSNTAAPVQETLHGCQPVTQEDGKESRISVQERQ

Results are given in words; binding and its absence hold for the method and conditions named. Binding seen in cells or lysates may run through a third protein. Some results given as binding are weak or reduced against the parent protein; the word gives no strength.

B1: TRAF2 (protein, human, UniProt Q12933 2-501, looked up)
chain: AAASVTPPGSLELLQPGFSKTLLGTKLEAKYLCSACRNVLRRPFQAQCGHRYCSFCLASILSSGPQNCAACVHEGIYEEGISILESSSAFPDNAARREVESLPAVCPSDGCTWKGTLKEYESCHEGRCPLMLTECPACKGLVRLGEKERHLEHECPERSLSCRHCRAPCCGADVKAHHEVCPKFPLTCDGCGKKKIPREKFQDHVKTCGKCRVPCRFHAIGCLETVEGEKQQEHEVQWLREHLAMLLSSVLEAKPLLGDQSHAGSELLQRCESLEKKTATFENIVCVLNREVERVAMTAEACSRQHRLDQDKIEALSSKVQQLERSIGLKDLAMADLEQKVLEMEASTYDGVFIWKISDFARKRQEAVAGRIPAIFSPAFYTSRYGYKMCLRIYLNGDGTGRGTHLSLFFVVMKGPNDALLRWPFNQKVTLMLLDQNNREHVIDAFRPDVTSSSFQRPVNDMNIASGCPLFCPVSKMEAKNSYVRDDAIFIKAIVDLTGL
Take B1: the binding entry is recorded as “binds”.

(Values after patent US20070098718A1 (Novartis, published 2007).)
